Test results as given in publication PMC10899660, “Global fungal-host interactome mapping identifies host targets of candidalysin” (Nature Communications, 2024).
No constants are given. Whether binding was seen depends on the method and setting. Some entries that bind do so weakly or less than the wild type. Sequences can lack the tags named with a protein.

Amino acid sequences for entries named in this document (tags omitted). Residues count along the entry.
Ece1-II peptide, Gal4 activation domain fusion (Q07730, residues 32-61): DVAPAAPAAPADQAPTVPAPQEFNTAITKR
Ece1-IV peptide, Gal4 activation domain fusion (Q07730, residues 94-126): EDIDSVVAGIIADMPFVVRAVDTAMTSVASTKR
Ece1-V peptide, Gal4 activation domain fusion (Q07730, residues 127-160): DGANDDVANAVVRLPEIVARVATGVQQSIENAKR
Ece1-VI peptide, Gal4 activation domain fusion (Q07730, residues 161-194): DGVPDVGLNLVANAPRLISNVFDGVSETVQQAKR
Ece1-VII peptide, Gal4 activation domain fusion (Q07730, residues 195-228): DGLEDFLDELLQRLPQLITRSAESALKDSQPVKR
Ece1-VIII peptide, Gal4 activation domain fusion (Q07730, residues 229-271): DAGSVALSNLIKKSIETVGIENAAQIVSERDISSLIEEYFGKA

Tests used:
Test in all cases: two-hybrid; HT-eY2H screen: Ece1 peptides as Gal4 activation domain fusions (AD-Y, called bait, yeast Y8930), human ORFeome clones (n = 13,761) as DB-X fusions (called prey, yeast Y8800); mated and spotted on SC-Leu-Trp, SC-Leu-Trp-His and SC-Leu-His+CHX; positive = activation of GAL1::HIS3 in a CHX-sensitive manner; clones confirmed by Sanger sequencing
[1] = biological target: Ece1-V peptide, Gal4 activation domain fusion (Candida albicans) (UniProt Q07730)
[2] = biological target: Ece1-IV peptide, Gal4 activation domain fusion (Candida albicans) (UniProt Q07730)
[3] = biological target: Ece1-II peptide, Gal4 activation domain fusion (Candida albicans) (UniProt Q07730)
[4] = biological target: Ece1-VI peptide, Gal4 activation domain fusion (Candida albicans) (UniProt Q07730)
[5] = biological target: Ece1-VIII peptide, Gal4 activation domain fusion (Candida albicans) (UniProt Q07730)
[6] = biological target: Ece1-VII peptide, Gal4 activation domain fusion (Candida albicans) (UniProt Q07730)

B1: OR7C2, DB fusion (human ORFeome clone) (protein, UniProt O60412 1-319)
chain: MERGNQTEVGNFLLLGFAEDSDMQLLLHGLFLSMYLVTIIGNLLIILTISSDSHLHTPMYFFLSNLSFADICFTSTTVPKMLVNIQTQSKMITFAGCLTQIFFFIAFGCLDNLLLTMTAYDRFVAICYPLHYTVIMNPRLCGLLVLGSWCISVMGSLLETLTILRLSFCTNMEIPHFFCDPSEVLKLACSDTFINNIVMYFVTIVLGVFPLCGILFSYSQIFSSVLRVSARGQHKAFSTCGSHLSVVSLFYGTGLGVYLSSAVTPPSRTSLAASVMYTMVTPMLNPFIYSLRNKDMKGSLGRLLLRATSLKEGTIAKLS
- binding [1]: binds
- binding [2]: binds
- binding [3]: binds

B2: OR7A10, DB fusion (human ORFeome clone) (protein, UniProt O76100 1-309)
chain: MKSWNNTIILEFLLLGISEEPELQAFLFGLFLSMYLVTVLGNLLIILATISDSHLHTPMYFFLSNLSFVDICFVSTTVPKMLVNIQTHNKVITYAGCITQMCFFLLFVGLDNFLLTVMAYDRFVAICHPLHYMVIMNPQLCGLLVLASWIMSVLNSMLQSLMVLPLPFCTHMEIPHFFCEINQVVHLACSDTFLNDIVMYFAVALLGGGPLTGILYSYSKIVSSIRAISSAQGKYKAFSTCASHLSVVSLFYGTCLGVYLSSAATHNSHTGAAASVMYTVVTPMLNPFIYSLRNKHIKGAMKTFFRGKQ
- binding [1]: binds
- binding [2]: binds
- binding [3]: binds

B3: UBTD2, DB fusion (human ORFeome clone) (protein, UniProt Q8WUN7 1-234)
chain: MGGCVGAQHDSSGSLNENSEGTGVALGRNQPLKKEKPKWKSDYPMTDGQLRSKRDEFWDTAPAFEGRKEIWDALKAAAHAFESNDHELAQAIIDGANITLPHGALTECYDELGNRYQLPVYCLAPPINMIEEKSDIETLDIPEPPPNSGYECQLRLRLSTGKDLKLVVRSTDTVFHMKRRLHAAEGVEPGSQRWFFSGRPLTDKMKFEELKIPKDYVVQVIVSQPVQNPTPVEN
- binding [4]: binds
- binding [5]: binds
- binding [3]: binds

B4: GLRX3, DB fusion (human ORFeome clone) (protein, UniProt O76003 1-335)
chain: MAAGAAEAAVAAVEEVGSAGQFEELLRLKAKSLLVVHFWAPWAPQCAQMNEVMAELAKELPQVSFVKLEAEGVPEVSEKYEISSVPTFLFFKNSQKIDRLDGAHAPELTKKVQRHASSGSFLPSANEHLKEDLNLRLKKLTHAAPCMLFMKGTPQEPRCGFSKQMVEILHKHNIQFSSFDIFSDEEVRQGLKAYSSWPTYPQLYVSGELIGGLDIIKELEASEELDTICPKAPKLEERLKVLTNKASVMLFMKGNKQEAKCGFSKQILEILNSTGVEYETFDILEDEEVRQGLKAYSNWPTYPQLYVKGELVGGLDIVKELKENGELLPILRGEN
- binding [1]: binds
- binding [2]: binds
- binding [3]: binds

B5: UBXN2B, DB fusion (human ORFeome clone) (protein, UniProt Q14CS0 1-331)
chain: MAEGGGPEPGEQERRSSGPRPPSARDLQLALAELYEDEVKCKSSKSNRPKATVFKSPRTPPQRFYSSEHEYSGLNIVRPSTGKIVNELFKEAREHGAVPLNEATRASGDDKSKSFTGGGYRLGSSFCKRSEYIYGENQLQDVQILLKLWSNGFSLDDGELRPYNEPTNAQFLESVKRGEIPLELQRLVHGGQVNLDMEDHQDQEYIKPRLRFKAFSGEGQKLGSLTPEIVSTPSSPEEEDKSILNAVVLIDDSVPTTKIQIRLADGSRLIQRFNSTHRILDVRNFIVQSRPEFAALDFILVTSFPNKELTDESLTLLEADILNTVLLQQLK
- binding [1]: binds
- binding [2]: binds
- binding [3]: binds

B6: TADA2B, DB fusion (human ORFeome clone) (protein, UniProt Q86TJ2 1-420)
chain: MAELGKKYCVYCLAEVSPLRFRCTECQDIELCPECFSAGAEIGHHRRYHGYQLVDGGRFTLWGPEAEGGWTSREEQLLLDAIEQFGFGNWEDMAAHVGASRTPQEVMEHYVSMYIHGNLGKACIPDTIPNRVTDHTCPSGGPLSPSLTTPLPPLDISVAEQQQLGYMPLRDDYEIEYDQDAETLISGLSVNYDDDDVEIELKRAHVDMYVRKLKERQRRKNIARDYNLVPAFLGKDKKEKEKALKRKITKEEKELRLKLRPLYQFMSCKEFDDLFENMHKEKMLRAKIRELQRYRRNGITKMEESAEYEAARHKREKRKENKNLAGSKRGKEDGKDSEFAAIENLPGFELLSDREKVLCSSLNLSPARYVTVKTIIIKDHLQKRQGIPSKSRLPSYLDKVLKKRILNFLTESGWISRDAS
- binding [4]: binds
- binding [5]: binds
- binding [1]: binds
- binding [2]: no binding
- binding [3]: binds
- binding [6]: binds
